Reference: article PMC8831594
Results are given in words; binding and its absence hold for the method and conditions named. Binding seen in cells or lysates may run through a third protein. For some of these results: Binding can be weak; no strength is given. For some of these results: Sequences can lack the tags named with a protein.

B1: Lap2α (partner of the MRTF-A deletion and mutant constructs in the co-IPs of Fig. 6e-i) (protein, UniProt Q61033-1 1-693)
chain: MPEFLEDPSVLTKDKLKSELVANNVTLPAGEQRKDVYVQLYLQHLTARNRPPLAAGANSKGPPDFSSDEEREPTPVLGSGASVGRGRGAVGRKATKKTDKPRLEDKDDLDVTELSNEELLDQLVRYGVNPGPIVGTTRKLYEKKLLKLREQGTESRSSTPLPTVSSSAENTRQNGSNDSDRYSDNDEGKKKEHKKVKSARDCVPFSELASTPSGAFFQGISFPEISTRPPLGRTELQAAKKVQTTKRDPPRETCTDTALPGKGQTHKLAPGRSLFIPSESSYDRCVEKSSSPSSQREFAARLVSAAASPSLIRETTTTYSKDIVENICRGGKSRAQPLRAEEPGVSDQSVFSSEREVLQESERSQVISPPLAQAIRDYVNSLLVQGGVGSLPGTSDSVPTLDVENICKRLSQSSYQDSESLSPPRKVPRLSEKPARGGDSGSCVAFQNTPGSEHRSSFAKSVVSHSLTTLGVEVSKPPPQHDKIEASEPSFPLHESILKVVEEEWQQIDRQLPSVACRYPVSSIEAARILSVPKVDDEILGFISEATPRAATQASSTESCDKHLDLALCRSYEAAASALQIAAHTAFVAKSLQADISQAAQIINSDPSDAQQALRILNRTYDAASYLCDAAFDEVRMSACAMGSSTMGRRYLWLKDCKISPASKNKLTVAPFKGGTLFGGEVHKVIKKRGNKQ

Assays:
[1] = biological target: T1, His-GST-Lap2α-CTD (C-terminal domain of Lap2α, residues 459-693) (mouse) (UniProt Q61033); assay: pull-down; His-GST or His-GST-Lap2α-CTD from E. coli lysates immobilised on glutathione agarose and washed (500 mM NaCl); 1.5 µM purified His-MRTF-A, 25 mM Tris-HCl pH 7.5, 150 mM NaCl, 1 mM DTT, overnight at 4 °C; anti-His Western blot; both purified
T1 sequence: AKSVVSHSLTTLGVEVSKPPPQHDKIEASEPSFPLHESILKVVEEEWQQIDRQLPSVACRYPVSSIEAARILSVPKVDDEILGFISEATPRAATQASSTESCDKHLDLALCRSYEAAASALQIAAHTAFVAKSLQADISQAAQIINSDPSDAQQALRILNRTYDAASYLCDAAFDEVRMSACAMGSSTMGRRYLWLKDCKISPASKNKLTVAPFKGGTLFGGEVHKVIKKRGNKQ

[2] = biological target: MRTF-A with deletion of the B1 domain (mouse); assay: co-IP; NIH 3T3 transfected with HA/FLAG-tagged constructs (3 µg each plasmid), 24 h; IP buffer 0.5% Triton X-100, 50 mM Tris-HCl pH 7.5, 150 mM NaCl; anti-HA or anti-FLAG M2 affinity gel, 3 h at 4 °C; Western blot
[3] = biological target: MRTF-A-ΔQ-2HA (mouse); assay: as above
[4] = biological target: RPEL-2HA (N-terminal RPEL domain of MRTF-A, amino acids 1-204) (mouse); assay: as above
[5] = biological target: MRTF-A-ΔLZ-2HA (mouse); assay: as above
[6] = biological target: MRTF-A C471 (MRTF-A deletion construct without C-terminus) (mouse); assay: as above
[7] = biological target: MRTF-A-ΔN-2HA (amino acids 170-1021) (mouse); assay: as above

Molecule	binding [1]	binding [2]	binding [3]	binding [4]	binding [5]	binding [6]	binding [7]
His-MRTF-A (recombinant mouse MRTF-A)	binds						
B1		binds	binds	no binding	binds	binds	binds
